Measured values reported in the supplement of paper PMC4604168 (melanoma cell lines).
This is one part of the list. Single values are uncertain, as repeats are few or missing.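 The apoptosis fraction was the count of cleaved-PARP antibody-stained nuclei relative to all DNA-stained nuclei, imaged in 1,536-well plates. Screening doses were set so most cells survived, and baseline and induced cleaved-PARP levels vary greatly across cell lines.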

Tests used:
Experiment in all cases: cleaved PARP positive nuclei fraction relative to DMSO control; melanoma cells; higher = more apoptosis
Conditions in all cases: library dose: low library concentration; 72 h
501Mel = test system: 501Mel
A101D = test system: A101D
A2058 = test system: A2058
A375 = test system: A375
C32 = test system: C32
CBRC008 = test system: CBRC008 (line from a melanoma biopsy)
CBRC013 = test system: CBRC013 (line from a melanoma biopsy)
CBRC014 = test system: CBRC014 (line from a melanoma biopsy)
CBRC016 = test system: CBRC016 (line from a melanoma biopsy)
CBRC017 = test system: CBRC017 (line from a melanoma biopsy)
COLO792 = test system: COLO792
COLO800 = test system: COLO800
COLO829 = test system: COLO829
G361 = test system: G361
IPC-298 = test system: IPC-298
IST-MEL1 = test system: IST-MEL1
LB2518-MEL = test system: LB2518-MEL
LOXIMVI = test system: LOXIMVI
MEL-HO = test system: MEL-HO

Row | SMILES | cleaved PARP positive nuclei fraction (501Mel) [%] | cleaved PARP positive nuclei fraction (A101D) [%] | cleaved PARP positive nuclei fraction (A2058) [%] | cleaved PARP positive nuclei fraction (A375) [%] | cleaved PARP positive nuclei fraction (C32) [%] | cleaved PARP positive nuclei fraction (CBRC008) [%] | cleaved PARP positive nuclei fraction (CBRC013) [%] | cleaved PARP positive nuclei fraction (CBRC014) [%] | cleaved PARP positive nuclei fraction (CBRC016) [%] | cleaved PARP positive nuclei fraction (CBRC017) [%] | cleaved PARP positive nuclei fraction (COLO792) [%] | cleaved PARP positive nuclei fraction (COLO800) [%] | cleaved PARP positive nuclei fraction (COLO829) [%] | cleaved PARP positive nuclei fraction (G361) [%] | cleaved PARP positive nuclei fraction (IPC-298) [%] | cleaved PARP positive nuclei fraction (IST-MEL1) [%] | cleaved PARP positive nuclei fraction (LB2518-MEL) [%] | cleaved PARP positive nuclei fraction (LOXIMVI) [%] | cleaved PARP positive nuclei fraction (MEL-HO) [%]
1 | O=C(/C=C/c1cccnc1)NCCCCC1CCN(C(=O)c2ccccc2)CC1 + NC(=O)Nc1cc(-c2cccc(F)c2)sc1C(=O)N[C@H]1CCCNC1 [AZD7762] (first compound 0.01 µM, partner dose 0.02 µM) | 191 | 46.4 | 78.7 | 372 | 257 | 7050 | 81.6 | 91.4 | 299 | 588 | 366 | 226 | 270 | 3650 | 207 | 108 | 401 | 52.6 | 223
2 | Cc1cn(-c2cc(NC(=O)c3ccc(C)c(Nc4nccc(-c5cccnc5)n4)c3)cc(C(F)(F)F)c2)cn1 [nilotinib] + O=C(Nc1cccc(Cl)c1)Nc1ncc(CCNc2ncnc3ccsc23)s1 [SNS314] (first compound 0.2 µM, partner dose 0.0008 µM) | 210 | 162 | 61.9 | 79.1 | 54.4 | 232 | 84.9 | 133 | 998 | 103 | 197 | 133 | 111 | 109 | 47.1 | 118 | 108 | 1260 | 64.9
3 | O=C(/C=C/c1cccnc1)NCCCCC1CCN(C(=O)c2ccccc2)CC1 + OCCn1cc(-c2cnc3nnn(Cc4ccc5ncccc5c4)c3n2)cn1 [PF04217903] (first compound 0.01 µM, partner dose 1 µM) | 141 | 87.2 | 94.7 | 216 | 42.7 | 2170 | 140 | 107 | 497 | 499 | 373 | 222 | 252 | 2120 | 106 | 142 | 61.4 | 112 | 189
4 | Cc1ccc(Nc2nccc(N(C)c3ccc4c(C)n(C)nc4c3)n2)cc1S(N)(=O)=O [Pazopanib] + COc1cc2c(Oc3ccc4[nH]c(C)cc4c3F)ncnc2cc1OCCCN1CCCC1 [cediranib] (first compound 0.4 µM, partner dose 0.4 µM) | 93.3 | 115 | 117 | 63.2 | 76 | 47.1 | 93.3 | 85.5 | 127 | 86.5 | 72.9 | 38.1 | 90.8 | 214 | 57.8 | 232 | 367 | 55.5 | 45.3
5 | CC[C@]1(O)C[C@H]2CN(CCc3c([nH]c4ccccc34)[C@@](C(=O)OC)(c3cc4c(cc3OC)N(C=O)[C@H]3[C@@](O)(C(=O)OC)[C@H](OC(C)=O)[C@]5(CC)C=CCN6CC[C@]43[C@@H]65)C2)C1 [vincristine] + O=C(Nc1cccc(Cl)c1)Nc1ncc(CCNc2ncnc3ccsc23)s1 [SNS314] (first compound 0.0001 µM, partner dose 0.0008 µM) | 81 | 52.9 | 380 | 247 | 166 | 86 | 119 | 91 | 76.1 | 143 | 69.2 | 146 | 96.5 | 71 | 46.7 | 87.3 | 119 | 82 | 73
6 | O=C(/C=C/c1cccnc1)NCCCCC1CCN(C(=O)c2ccccc2)CC1 + O=C(CCCCCCC(=O)Nc1ccccc1)NO [vorinostat] (first compound 0.01 µM, partner dose 0.08 µM) | 89.8 | 196 | 57.7 | 80.7 | 143 | 1560 | 64.1 | 111 | 309 | 151 | 264 | 142 | 57.1 | 2390 | 173 | 181 | 97.1 | 28 | 61.3
7 | O=C(/C=C/c1cccnc1)NCCCCC1CCN(C(=O)c2ccccc2)CC1 + Cn1cncc1[C@@](N)(c1ccc(Cl)cc1)c1ccc2c(c1)c(-c1cccc(Cl)c1)cc(=O)n2C [tipifarnib] (first compound 0.01 µM, partner dose 0.01 µM) | 108 | 286 | 37.9 | 127 | 151 | 3430 | 118 | 91.3 | 560 | 409 | 884 | 236 | 236 | 4520 | 49.8 | 73.1 | 145 | 96.8 | 304
8 | N#CC[C@H](C1CCCC1)n1cc(-c2ncnc3[nH]ccc23)cn1 [ruxolitinib] + Cn1cncc1[C@@](N)(c1ccc(Cl)cc1)c1ccc2c(c1)c(-c1cccc(Cl)c1)cc(=O)n2C [tipifarnib] (first compound 1 µM, partner dose 0.01 µM) | 94.9 | 71.3 | 75.4 | 80.3 | 45 | 283 | 111 | 77.9 | 183 | 92.8 | 118 | 43.3 | 85.1 | 90.5 | 88.2 | 42.5 | 209 | 168 | 223
9 | O=C(/C=C/c1cccnc1)NCCCCC1CCN(C(=O)c2ccccc2)CC1 + COc1cc(Nc2ncc(F)c(Nc3ccc4c(n3)NC(=O)C(C)(C)O4)n2)cc(OC)c1OC [Tamatinib] (first compound 0.01 µM, partner dose 0.4 µM) | 25.8 | 263 | 166 | 84.8 | 109 | 1970 | 128 | 93.2 | 168 | 310 | 362 | 201 | 142 | 2190 | 134 | 289 | 94.4 | 63.9 | 178
10 | COc1cc([C@@H]2c3cc4c(cc3[C@@H](O[C@@H]3O[C@@H]5CO[C@@H](C)O[C@H]5[C@H](O)[C@H]3O)[C@H]3COC(=O)[C@H]23)OCO4)cc(OC)c1O [etoposide] + NC(=O)Nc1cc(-c2cccc(F)c2)sc1C(=O)N[C@H]1CCCNC1 [AZD7762] (first compound 0.02 µM, partner dose 0.02 µM) | 173 | 106 | 80.2 | 710 | 37.4 | 191 | 141 | 89.5 | 124 | 91.7 | 44.6 | 100 | 92.8 | 80 | 88.3 | 61.6 | 41.6 | 54.8 | 268
11 | CC[C@]1(O)C[C@H]2CN(CCc3c([nH]c4ccccc34)[C@@](C(=O)OC)(c3cc4c(cc3OC)N(C=O)[C@H]3[C@@](O)(C(=O)OC)[C@H](OC(C)=O)[C@]5(CC)C=CCN6CC[C@]43[C@@H]65)C2)C1 [vincristine] + CN(C)S(=O)(=O)c1ccc2c(c1)/C(=C/c1cc3c([nH]1)CCCC3)C(=O)N2 [SU6656] (first compound 0.0001 µM, partner dose 0.4 µM) | 214 | 431 | 4170 | 186 | 306 | 960 | 124 | 83.5 | 166 | 86 | 82.1 | 104 | 138 | 142 | 92.8 | 102 | 88.4 | 70 | 61.5
12 | Cc1cn(-c2cc(NC(=O)c3ccc(C)c(Nc4nccc(-c5cccnc5)n4)c3)cc(C(F)(F)F)c2)cn1 [nilotinib] + CC1(C)NC(=O)N(c2ccc([N+](=O)[O-])c(C(F)(F)F)c2)C1=O [nilutamide] (first compound 0.2 µM, partner dose 1 µM) | 178 | 44.8 | 102 | 74.6 | 66.4 | 143 | 121 | 93.2 | 23.8 | 106 | 63.6 | 94.3 | 59.1 | 78.6 | 42.7 | 192 | 91.6 | 81.8 | 67.6
13 | O=C(/C=C/c1cccnc1)NCCCCC1CCN(C(=O)c2ccccc2)CC1 + CN(C)S(=O)(=O)c1ccc2c(c1)/C(=C/c1cc3c([nH]1)CCCC3)C(=O)N2 [SU6656] (first compound 0.01 µM, partner dose 0.4 µM) | 97.3 | 181 | 180 | 28.5 | 57.1 | 3100 | 76.3 | 92.3 | 1400 | 571 | 547 | 165 | 287 | 4410 | 191 | 52.1 | 134 | 30 | 104
14 | O=c1[nH]nc(Sc2ncc([N+](=O)[O-])s2)n1-c1ccc2c(c1)OCCO2 + CO[C@@H]1[C@H](N(C)C(=O)c2ccccc2)C[C@H]2O[C@]1(C)n1c3ccccc3c3c4c(c5c6ccccc6n2c5c31)C(=O)NC4 [Midostaurin] (first compound 0.2 µM, partner dose 0.08 µM) | 88.9 | 276 | 105 | 64.5 | 46.7 | 164 | 109 | 543 | 235 | 113 | 257 | 269 | 154 | 97.1 | 92.1 | 177 | 46.8 | 24.7 | 62.6
15 | Cc1cc(Nc2cc(N3CCN(C)CC3)nc(Sc3ccc(NC(=O)C4CC4)cc3)n2)n[nH]1 [Tozasertib] + O=C(O)c1ccc(-c2c[nH]c3ncc(-c4ccccc4)cc23)cc1C1CCCC1 [GSK650394] (first compound 0.006 µM, partner dose 0.16 µM) | 71.2 | 45.6 | 177 | 85.8 | 125 | 336 | 103 | 111 | 248 | 128 | 118 | 44.9 | 140 | 196 | 46.5 | 58.7 | 285 | 88.3 | 168

An excerpt of these results, tab-delimited.
Row	SMILES	cleaved PARP positive nuclei fraction (501Mel) [%]	cleaved PARP positive nuclei fraction (A101D) [%]	cleaved PARP positive nuclei fraction (A2058) [%]	cleaved PARP positive nuclei fraction (A375) [%]	cleaved PARP positive nuclei fraction (C32) [%]	cleaved PARP positive nuclei fraction (CBRC008) [%]	cleaved PARP positive nuclei fraction (CBRC013) [%]	cleaved PARP positive nuclei fraction (CBRC014) [%]	cleaved PARP positive nuclei fraction (CBRC016) [%]	cleaved PARP positive nuclei fraction (CBRC017) [%]	cleaved PARP positive nuclei fraction (COLO792) [%]	cleaved PARP positive nuclei fraction (COLO800) [%]	cleaved PARP positive nuclei fraction (COLO829) [%]	cleaved PARP positive nuclei fraction (G361) [%]	cleaved PARP positive nuclei fraction (IPC-298) [%]	cleaved PARP positive nuclei fraction (IST-MEL1) [%]	cleaved PARP positive nuclei fraction (LB2518-MEL) [%]	cleaved PARP positive nuclei fraction (LOXIMVI) [%]	cleaved PARP positive nuclei fraction (MEL-HO) [%]
2	Cc1cn(-c2cc(NC(=O)c3ccc(C)c(Nc4nccc(-c5cccnc5)n4)c3)cc(C(F)(F)F)c2)cn1 [nilotinib] + O=C(Nc1cccc(Cl)c1)Nc1ncc(CCNc2ncnc3ccsc23)s1 [SNS314] (first compound 0.2 µM, partner dose 0.0008 µM)	210	162	61.9	79.1	54.4	232	84.9	133	998	103	197	133	111	109	47.1	118	108	1260	64.9
5	CC[C@]1(O)C[C@H]2CN(CCc3c([nH]c4ccccc34)[C@@](C(=O)OC)(c3cc4c(cc3OC)N(C=O)[C@H]3[C@@](O)(C(=O)OC)[C@H](OC(C)=O)[C@]5(CC)C=CCN6CC[C@]43[C@@H]65)C2)C1 [vincristine] + O=C(Nc1cccc(Cl)c1)Nc1ncc(CCNc2ncnc3ccsc23)s1 [SNS314] (first compound 0.0001 µM, partner dose 0.0008 µM)	81	52.9	380	247	166	86	119	91	76.1	143	69.2	146	96.5	71	46.7	87.3	119	82	73
9	O=C(/C=C/c1cccnc1)NCCCCC1CCN(C(=O)c2ccccc2)CC1 + COc1cc(Nc2ncc(F)c(Nc3ccc4c(n3)NC(=O)C(C)(C)O4)n2)cc(OC)c1OC [Tamatinib] (first compound 0.01 µM, partner dose 0.4 µM)	25.8	263	166	84.8	109	1970	128	93.2	168	310	362	201	142	2190	134	289	94.4	63.9	178
